Percent effect of library compounds

Sequences of proteins named here, by UniProt entry; tags and fusion partners are left off. Residues count along the entry.
UniProt Q8IDJ8, 1-583: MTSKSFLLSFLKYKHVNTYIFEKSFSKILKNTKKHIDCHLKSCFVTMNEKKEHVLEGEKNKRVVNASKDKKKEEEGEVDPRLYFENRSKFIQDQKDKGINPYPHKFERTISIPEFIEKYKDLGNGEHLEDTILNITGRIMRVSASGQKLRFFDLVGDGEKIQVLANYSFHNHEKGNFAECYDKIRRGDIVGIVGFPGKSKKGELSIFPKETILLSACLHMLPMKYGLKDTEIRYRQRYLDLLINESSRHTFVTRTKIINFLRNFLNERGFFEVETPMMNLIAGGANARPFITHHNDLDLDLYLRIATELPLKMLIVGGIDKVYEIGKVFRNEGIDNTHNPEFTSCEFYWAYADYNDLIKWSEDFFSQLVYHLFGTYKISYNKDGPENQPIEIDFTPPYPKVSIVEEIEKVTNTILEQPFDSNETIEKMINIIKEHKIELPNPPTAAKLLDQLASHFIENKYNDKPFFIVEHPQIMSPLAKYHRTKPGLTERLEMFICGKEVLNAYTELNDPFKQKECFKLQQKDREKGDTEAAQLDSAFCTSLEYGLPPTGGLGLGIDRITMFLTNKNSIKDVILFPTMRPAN

Measurements from “University of Dundee, Small-Polar-MMV Screening Library” (2021), ChEMBL document CHEMBL3988442.

The filed quantity is “Percent Effect” (%). The controls that fix the scale are not given in the record; negative values are as filed. Compounds were drawn at random from those tested, without regard to their results.

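Enzyme assay of the cytosolic lysyl-tRNA synthetase in 384-well plates, read by luminescence. Target: Lysine-tRNA ligase, Plasmodium falciparum 3D7 (UniProt Q8IDJ8). Concentration: 30 µM. Higher reads as stronger inhibition, judged from the few compounds that gave an IC50. Size under these conditions: about 69,000 compounds, about 49 of them at 50% or above in at least one test.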

compound | percent effect
Nc1nnc(SCc2cc(=O)n3c4c(sc3n2)CCCC4)s1 | 4.045
CCN(CC1CCCO1)S(=O)(=O)c1cc(NC(C)=O)ccc1C (stereo not given) | 0.8062
CC(C)CN(CC(O)c1ccc(F)cc1)C(=O)c1csnn1 (stereo not given) | 2.824
CN(C)CCNC(=O)c1ccn(-c2ccc3ccccn23)n1 | 0.8746
COc1cc(OC)cc(C2(O)CCN(Cc3ncc(C)o3)CC2)c1 | -5.531
CC(C)c1nnc2n1CC(CNCc1nnc(C(C)(C)C)o1)CC2 (stereo not given) | 6.383
c1cncc(C2COC3(CCN(Cc4cccs4)CC3)C2)c1 (stereo not given) | -0.7871
O=S(=O)(NC1CCCCC12OCCO2)c1ccc2c(c1)OCCO2 (stereo not given) | 6.303
CCOCCCC(=O)Nc1c(-c2ccc(F)cc2)ncn1C | 2.016
O=C1c2cnc(N3CCC(O)CC3)nc2CN1Cc1cccc(F)c1 | -1.978
Cc1ccccc1CC(C)NCc1c(C)nn(C)c1N1CCOCC1 (stereo not given) | 0.1055
COCCN1CCC2(CC1)CCN(Cc1ccccn1)CC2 | 8.876
CCOC(=O)C1CN(CC2CC2)Cc2ncn(CC)c21 (stereo not given) | 4.171
COc1cc2nc(C)n(CC(=O)O)c(=O)c2cc1OC | 5.12
O=C(NCCc1coc(-c2ccc(F)cc2)n1)NC1CCC(O)CC1 (stereo not given) | 5.228
Cc1cc(C)c(OCC(=O)NS(=O)(=O)c2cccnc2)c(C)c1 | 4.62
Cc1csc(C2CCCCN2C(=O)c2cc(C)n(C)n2)n1 (stereo not given) | -0.9544
CC(C)(C)S(=O)(=O)c1ccc(N2CCN(c3ccccc3)CC2)nn1 | 1.867
O=C(c1csc(Br)c1)N1CCCC(n2ccnc2)C1 (stereo not given) | 4.863
COCC(=O)NCCSCCOc1cccc(Br)c1 | -0.4651
O=S(=O)(Cc1c(F)cccc1Cl)NCCCN1CCCCCC1 | 1.352
CCn1cc2c(n1)CN(Cc1ccoc1)CC2COCC1CC1 (stereo not given) | 7.695
COC(=O)CC1C(=O)NCCN1c1nc2c(s1)c(C)nn2C (stereo not given) | 4.818
Cc1nc(C)n(CC2CCCN(Cc3cn4c(C)cccc4n3)C2)n1 (stereo not given) | 0.7847
CCN1CCOCC2(CCCN(C(=O)c3cnccn3)C2)C1 (stereo not given) | -2.103
Cc1nc(C(=O)N2CCCC2c2noc(C)n2)c[nH]1 (stereo not given) | 1.885
COc1c(C)cnc(CN(C)C2CCOC3(CCOCC3)C2)c1C (stereo not given) | 3.104
COc1ccccc1NCC(=O)NCc1cc[nH]n1 | -1.59
O=C(NCc1ccccc1F)NCC(O)c1cccc(F)c1 (stereo not given) | 1.281
Cc1ccnc(OCC(=O)N2CCN(c3ncccn3)CC2)n1 | 2.46
O=c1c(Cc2ccccc2)c(O)ccn1Cc1ccco1 | 6.039
O=C(CS(=O)(=O)Cc1ccc(F)cc1)NCc1ccccc1F | 5.958
c1ccc(-c2nnc3n2CCN(Cc2ccc4c(c2)OCCO4)C3)cc1 | -1.21
O=C(CCC1CCCCC1)NCc1nnc2ccccn12 | 4.825
Cc1cnn(CC2CCCCN2CCCS(N)(=O)=O)c1 (stereo not given) | -4.032
Cc1nc(CNC(=O)CCN2CCN(c3ccccn3)CC2)oc1C | -3.834
Cc1nnc(NCc2ccc(N3CCC(CO)CC3)cc2)c(C#N)c1C | 2.958
COc1ccc(C(=O)N2C[C@@H](CN3CCCCC3)[C@@H](CO)C2)cc1Cl | 0.5784
CC(C)n1ccc2c(NC(=O)c3n[nH]c4c3CCC4)cccc21 | 6.295
Cc1nnc(NC(=O)NC(C)Cn2cccn2)s1 (stereo not given) | -0.2351
CCCc1ccc(C(=O)N2CCc3c(nc(C)nc3N(C)C)C2)cc1 | 0.9637
NCCC(=O)Nc1ccc(-c2ccccc2)cc1 | 1.81
CN(C)CCN1C(=O)CC[C@@H]2[C@H]1CCN2C(=O)c1ccc(C#N)cc1 | 5.972
CCC(NC(=O)C1CCN(S(C)(=O)=O)CC1)c1ccc(OC)c(OC)c1 (stereo not given) | -3.174
Cc1cc(C)c2c(C(=O)N(C)C)cc(-c3cnc(N)nc3)nc2c1 | 0.2978
CNc1ncc(CN(C)c2nc(C)c3ccc(S(C)(=O)=O)cc3n2)cn1 | 1.541
CC(C)(C)n1nc(C2CC2)cc1C(=O)NC1CCN(CC(N)=O)CC1 | -2.278
O=C(O)c1csc(S(=O)(=O)Nc2cccc(OC(F)F)c2)c1 | -1.922
O=C1CCC(C(=O)NCc2nn(-c3ccccc3)c3c2CCC3)CN1 (stereo not given) | -1.524
O=C(c1ccc2cccnc2n1)N(Cc1ccsc1)CC1CCCO1 (stereo not given) | -1.389
Cn1cccc1C(O)CNS(=O)(=O)c1ccccc1F (stereo not given) | 1.867
Cc1cc(C[C@@H]2COC[C@H]2NCc2ccc(Cl)c(Cl)c2)on1 | -2.944
CCNC(=O)NCc1ccccc1NS(=O)(=O)c1ccccc1 | -1.298
CN(Cc1ccccc1Cl)C(=O)c1cc(CN2CCC(O)CC2)on1 | 5.66
Cc1nn(C)c(Oc2cccc(F)c2)c1NC(=O)C1CCCO1 (stereo not given) | 3.376
Cc1cc(CNC(=O)NCc2cccs2)no1 | -0.8151
Cc1nc(NCc2scnc2-c2ccccc2)cc(C2CCNCC2)n1 | -3.496
Cc1ccc(NC2(C(=O)NCCCN)CCCC2)cc1 | 2.807
Cn1cnc(S(=O)(=O)NCCC(O)c2ccc3c(c2)OCO3)c1 (stereo not given) | 2.32
CCc1cc(C(=O)N2CCC(c3cc4ncccc4cn3)CC2)no1 | 0.6221
CC(C)C(=O)N1CC[C@H]2N(C)CC[C@@]2(C(=O)Nc2ccccc2)CC1 | 3.696
CNc1ncccc1CN1CCN(c2cc(NC3CC3)nc(N)n2)CC1 | 3.53
Cc1nc(C(C)Nc2ncnc3c2CCNCC3)c(C)s1 (stereo not given) | 1.503
O=C(CCCN1CCCCC1)N1CCN(C(=O)c2nc[nH]n2)CC1 | 7.729
Cc1nccc(-c2ccccc2)c1C(=O)N1CCC2(CCCO2)CC1 | 1.953
CSc1nccc(N2C[C@@H]3CC[C@H](C2)N(CC2CCC2)C3=O)n1 | -0.05457
COCCN1CC[C@@H]2OC[C@H](C(=O)NCc3cccs3)C[C@@H]2C1 | -6.671
COCCC(=O)N1CCCC2(CCCN2Cc2ccccc2F)C1 (stereo not given) | 0.07128
CCn1cc(NC(=O)NCCN2CCc3ccccc3C2)cn1 | 1.179
Cc1cccc(CN2C[C@@H](NC(=O)C3CCC3)[C@H]3COC[C@H]32)n1 | 4.705
CS(=O)(=O)NCCN1CCOC2(CCc3ccccc32)C1 (stereo not given) | 3.013
c1ccc(-c2nnn3c2COC(CNCC2CCOCC2)C3)cc1 (stereo not given) | 4.826
Cc1cc(NCCC(=O)NC2CCS(=O)(=O)C2)nc(-c2ccncc2)n1 (stereo not given) | 4.722
CCN(CCn1cccn1)Cc1nc(-c2ccc(F)cc2)oc1C | 1.405
CCn1nc(C)c(C(=O)N2C[C@@H](CN(C)C)[C@@H](CO)C2)c1C | 1.797
O=C1NCCCCC1Sc1n[nH]c(=O)n1C1CC1 (stereo not given) | 3.571
O=C(NCc1cccnc1N1CCCCC1)c1ccc2[nH]nnc2c1 | -1.187
Cc1nnc(C2CCN(c3ncccn3)CC2)o1 | 0.5293
COCCn1ccc2cc(C(=O)NC3CCOC(C)(C)C3)ccc21 (stereo not given) | 1.137
Cc1nc(N2C[C@@H](CN3CCCN(C)CC3)[C@@H](CO)C2)c2sccc2n1 | -2.138
Cc1cc(CN2CC[C@H]3C(=O)N(c4ccsc4)CCO[C@H]3C2)no1 | 0.4497
Cc1cnn(CC2CN(CCS(C)(=O)=O)CCO2)c1 (stereo not given) | 4.558
O=C(Cc1cccs1)N1CCCC(CNS(=O)(=O)Cc2ccccc2)C1 (stereo not given) | 1.979
CC(C)(C)Cc1noc2ncc(C(=O)N3CCSCC3)cc12 | 2.148
Cc1cnn(CCNCc2ccc(OCc3cccnc3)cc2)c1 | 4.03
CNC(=O)c1cc(C)n(-c2cccc(OC)c2)c1C | -0.4604
CN1CCN(C(=O)CCC(=O)c2cccs2)Cc2ccccc21 | 0.8157
Cc1nnc(NC(=O)C(C)n2ncc(Br)c2C)s1 (stereo not given) | 0.4323
Cc1csc(C2(NCC(O)COC(C)C)CCCC2)n1 (stereo not given) | 0.1934
Cc1noc(C)c1CN1CCc2ncnc(-c3ccncc3)c2CC1 | -0.7712
Cc1cnc(CN(Cc2cccc(O)c2)CC2CC2)cn1 | 4.221

Repeated from the top, 10 entries:

compound,percent effect
Nc1nnc(SCc2cc(=O)n3c4c(sc3n2)CCCC4)s1,4.045
CCN(CC1CCCO1)S(=O)(=O)c1cc(NC(C)=O)ccc1C (stereo not given),0.8062
CC(C)CN(CC(O)c1ccc(F)cc1)C(=O)c1csnn1 (stereo not given),2.824
CN(C)CCNC(=O)c1ccn(-c2ccc3ccccn23)n1,0.8746
COc1cc(OC)cc(C2(O)CCN(Cc3ncc(C)o3)CC2)c1,-5.531
CC(C)c1nnc2n1CC(CNCc1nnc(C(C)(C)C)o1)CC2 (stereo not given),6.383
c1cncc(C2COC3(CCN(Cc4cccs4)CC3)C2)c1 (stereo not given),-0.7871
O=S(=O)(NC1CCCCC12OCCO2)c1ccc2c(c1)OCCO2 (stereo not given),6.303
CCOCCCC(=O)Nc1c(-c2ccc(F)cc2)ncn1C,2.016
O=C1c2cnc(N3CCC(O)CC3)nc2CN1Cc1cccc(F)c1,-1.978